Literature values in patent US20040214848A1, “Inhibitors of ABC drug transporters in microbial cells” (priority 2001, published 2004).
Some of these results come from one statement about several compounds together.

Details: cited from earlier work

NC[C@H]1O[C@H](O[C@H]2[C@H](O)[C@@H](O[C@H]3O[C@H](CO)[C@@H](O)[C@H](N)[C@H]3O)[C@H](N)C[C@@H]2N)[C@H](N)C[C@@H]1O [Tobramycin, tobramycin]
Peak concentrations in plasma that may result in ototoxicity or nephrotoxicity: 6 to 10 µg/mL
